These are yes or no findings as the source states them, for the method shown. For part of these data: Binding seen in cells or lysates may run through a third protein. For part of these data: Binding can be weak; no strength is given. Sequences can lack the tags named with a protein.
B1: Cdc11^72-415 (N-terminally truncated Cdc11), Gal4 activation domain fusion from pOAD (domain or fragment, UniProt P32458 72-415)
chain: TVELEDDEGVKIQLNIIDTPGFGDSLDNSPSFEIISDYIRHQYDEILLEESRVRRNPRFKDGRVHCCLYLINPTGHGLKEIDVEFIRQLGSLVNIIPVISKSDSLTRDELKLNKKLIMEDIDRWNLPIYNFPFDEDEISDEDYETNMYLRTLLPFAIIGSNEVYEMGGDVGTIRGRKYPWGILDVEDSSISDFVILRNALLISHLHDLKNYTHEILYERYRTEALSGESVAAESIRPNLTKLNGSSSSSTTTRRNTNPFKQSNNINNDVLNPASDMHGQSTGENNETYMTREEQIRLEEERLKAFEERVQQELLLKRQELLQREKELREIEARLEKEAKIKQEE
B2: Kin2-C9 (a.a. 882–1147, TD2 domain), Venus-N fusion from pVN1-KIN2-C9 (domain or fragment, UniProt P13186 882-1147)
chain: RLTSVYSQELTEKQILEEASKAPPGSMPSIDYPKSMFLKGFFSVQTTSSKPLPIVRHNIISVLTRMNIDFKEVKGGFICVQQRPSIETAAVPVITTTGVGLDSGKAMDLQNSLDSQLSSSYHSTASSASRNSSIKRQGSYKRGQNNIPLTPLATNTHQRNSSIPMSPNYGNQSNGTSGELSSMSLDYVQQQDDILTTSRAQNINNVNGQTEQTNTSGIKERPPIKFEIHIVKVRIVGLAGVHFKKVSGNTWLYKELASYILKELNL
B3: Pea2 (Gal4 activation domain fusion from pGAD-PEA2) (protein, UniProt P40091 1-420)
chain: MHKFDLELSRRANPLLFSAERYEEYPLKYDELKQYLLSQNPSHPHHNSRPYTSIDYFDYLLYRSKNDESEIDLDKKLVSEFALYYVQKEHLNSDDLNPTLNELLKLQPKSADWYEMMLRILESINTTGIDQLTKENNNSFPNSKRARSSTNMGGTDKFNKGAYHTDKADDDKNEILQELTSFLMSNSIQKGIDIKPIPLDDPVKFLKNGINSILDTCVSLEKNTSSPPISPNAAAIQEEDSSKKLEELETAFSDLQLAHNFLTKQFENDRAEYVQDIEKLTRTNRELQDKLLNNHSNLSKTEKKLHELEQENKELEKANNKLNSSRHNFGMSSPASSPVTWDPSSPSSVGSPTSGSGSRSLSIMTSEFKKVLTSTQRKYEKELSDEREHRFKLERELALLKNAEANTSLALNRDDPPDML

Experiments:
[1] = target: Kin2-N1 (N-terminal region of Kin2), Gal4 DNA-binding domain fusion (S. cerevisiae); assay: two-hybrid; directed assay: pJ69-4α with pGBDU-C1-based baits mated with pJ69-4A with pOAD- or pGAD-based preys; growth of diploids on SC-Leu-Ura-His (with 3 mM 3-AT for Bmh1) or SC-Leu-Ura-Ade at 30°C for 3 days
[2] = target: PMT-Venus-Rho3^Q74L (from pVC1-PMT-RHO3^Q74L) (S. cerevisiae); assay: split reporter; BiFC with Venus-N (pVN1) and Venus-C (pVC1) fusions under the MET25 promoter in strain JGY3088 (kin1Δ kin2Δ); SC-His-Ura plate, 30°C, 16 hr; green fluorescence by microscopy

Binder	binding [1]	binding [2]
B1	no binding	–
B2	–	binds
B3	no binding	–
